Measurements published in publication PMC9600989.

The chains behind the UniProt entries cited, without tags or fusion partners. Where a name states a change or a piece, a line headed by the entry shows the natural chain unless it says otherwise.
UniProt P97438: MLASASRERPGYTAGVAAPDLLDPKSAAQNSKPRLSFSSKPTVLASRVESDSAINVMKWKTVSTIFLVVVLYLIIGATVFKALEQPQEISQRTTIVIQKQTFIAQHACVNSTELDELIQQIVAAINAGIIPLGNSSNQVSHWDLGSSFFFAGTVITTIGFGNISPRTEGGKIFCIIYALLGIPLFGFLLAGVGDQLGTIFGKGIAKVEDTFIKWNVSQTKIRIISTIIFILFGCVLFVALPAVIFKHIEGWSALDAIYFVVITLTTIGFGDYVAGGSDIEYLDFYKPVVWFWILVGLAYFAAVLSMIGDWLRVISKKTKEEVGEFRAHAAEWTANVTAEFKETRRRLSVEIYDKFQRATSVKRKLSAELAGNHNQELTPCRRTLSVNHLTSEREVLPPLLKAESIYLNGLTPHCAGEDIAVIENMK

Tests used:
[1] = target: Flag-tagged TREK1 isotype 1 (mouse); experiment: co-IP; HEK293T cells co-transfected with Flag-tagged channel and GFP-β-COP, RIPA lysate, IP with anti-Flag, blot with anti-GFP
[2] = target: Flag-tagged TREK1NΔ4 (only the N4 region deleted from the N-terminus of TREK1) (mouse) (UniProt P97438); experiment: as above
[3] = target: Flag-tagged TREK1ΔN1 (mouse); experiment: as above
[4] = target: Flag-tagged TREK1ΔN1,2 (mouse); experiment: as above
[5] = target: Flag-tagged TREK1ΔN (mouse); experiment: as above
[6] = target: VC-TREK1 isotype 1 (C-terminal portion of Venus fused to TREK1 isotype 1) (mouse); experiment: split reporter; BiFC with split Venus (VN173, VC155) in co-transfected HEK293T cells, fixed 24 h after transfection, confocal microscopy

Binder | binding [1] | binding [2] | binding [3] | binding [4] | binding [5] | binding [6]
GFP-tagged β-COP (protein, UniProt Q9JIF7 1-953) MTAAENVCYTLINVPMDSEPPSEISLKNDLEKGDVKSKTEALKKVIIMILNGEKLPGLLMTIIRFVLPLQDHTIKKLLLVFWEIVPKTTPDGRLLHEMILVCDAYRKDLQHPNEFIRGSTLRFLCKLKEAELLEPLMPAIRACLEHRHSYVRRNAVLAIYTIYRNFEHLIPDAPELIHDFLVNEKDASCKRNAFMMLIHADQDRALDYLSTCIDQVQTFGDILQLVIVELIYKVCHANPSERARFIRCIYNLLQSSSPAVKYEAAGTLVTLSSAPTAIKAAAQCYIDLIIKESDNNVKLIVLDRLVELKEHPAHERVLQDLVMDILRVLSTPDLEVRKKTLQLALDLVSSRNVEELVIVLKKEVIKTNNVSEHEDTDKYRQLLVRTLHSCSVRFPDMAANVIPVLMEFLSDSNEAAAADVLEFVREAIQRFDNLRMLIVEKMLEVFHAIKSVKIYRGALWILGEYCSTKEDIQSVMTEVRRSLGEIPIVESEIKKEAGELKPEEEITVGPVQKLVTEMGTYATQSALSSSRPTKKEEDRPPLRGFLLDGDFFVAASLATTLTKIALRYVALVQEKKKQNSFVAEAMLLMATILHLGKSSLPKKPITDDDVDRISLCLKVLSECSPLMNDIFNKECRQSLSQMLSAKLEEEKLSQKKESEKRNVTVQPDDPISFMQLTAKNEMNCKEDQFQLSLLAAMGNTQRKEAADPLASKLNKVTQLTGFSDPVYAEAYVHVNQYDIVLDVLVVNQTSDTLQNCTLELATLGDLKLVEKPSPLTLAPHDFANIKANVKVASTENGIIFGNIVYDVSGAASDRNCVVLSDIHIDIMDYIQPATCTDAEFRQMWAEFEWENKVTVNTNMTDLNDYLQHILKSTNMKCLTPEKALSGYCGFMAANLYARSIFGEDALANVSIEKPVHQGPDAAVTGHIRIRAKSQGMALSLGDKINLSQKKTSL | binds | no binding | binds | binds | no binding | –
VN-β-COP (N-terminal portion of Venus fused to β-COP) (protein, UniProt Q9JIF7 1-953) MTAAENVCYTLINVPMDSEPPSEISLKNDLEKGDVKSKTEALKKVIIMILNGEKLPGLLMTIIRFVLPLQDHTIKKLLLVFWEIVPKTTPDGRLLHEMILVCDAYRKDLQHPNEFIRGSTLRFLCKLKEAELLEPLMPAIRACLEHRHSYVRRNAVLAIYTIYRNFEHLIPDAPELIHDFLVNEKDASCKRNAFMMLIHADQDRALDYLSTCIDQVQTFGDILQLVIVELIYKVCHANPSERARFIRCIYNLLQSSSPAVKYEAAGTLVTLSSAPTAIKAAAQCYIDLIIKESDNNVKLIVLDRLVELKEHPAHERVLQDLVMDILRVLSTPDLEVRKKTLQLALDLVSSRNVEELVIVLKKEVIKTNNVSEHEDTDKYRQLLVRTLHSCSVRFPDMAANVIPVLMEFLSDSNEAAAADVLEFVREAIQRFDNLRMLIVEKMLEVFHAIKSVKIYRGALWILGEYCSTKEDIQSVMTEVRRSLGEIPIVESEIKKEAGELKPEEEITVGPVQKLVTEMGTYATQSALSSSRPTKKEEDRPPLRGFLLDGDFFVAASLATTLTKIALRYVALVQEKKKQNSFVAEAMLLMATILHLGKSSLPKKPITDDDVDRISLCLKVLSECSPLMNDIFNKECRQSLSQMLSAKLEEEKLSQKKESEKRNVTVQPDDPISFMQLTAKNEMNCKEDQFQLSLLAAMGNTQRKEAADPLASKLNKVTQLTGFSDPVYAEAYVHVNQYDIVLDVLVVNQTSDTLQNCTLELATLGDLKLVEKPSPLTLAPHDFANIKANVKVASTENGIIFGNIVYDVSGAASDRNCVVLSDIHIDIMDYIQPATCTDAEFRQMWAEFEWENKVTVNTNMTDLNDYLQHILKSTNMKCLTPEKALSGYCGFMAANLYARSIFGEDALANVSIEKPVHQGPDAAVTGHIRIRAKSQGMALSLGDKINLSQKKTSL | – | – | – | – | – | binds

Results are given in words; binding and its absence hold for the method and conditions named. Binding seen in cells or lysates may run through a third protein. For part of these data: Binding calls can cover weak binding; strength is not graded here. Sequences can lack the tags named with a protein.
